Laboratory results as given in PMC6923878.
No constants are given. Whether binding was seen depends on the method and setting. Binding seen in cells or lysates may run through a third protein. Some binding calls cover weakened binding; strength is not graded here.

Chains of the proteins cited; added tags and fusions are not shown. Lines headed by an entry give the natural chain unless they say otherwise; changes in a name come on top. A line that says so, or that is headed by a name, gives the form on record, which may keep a tag or linker. Residues count along the entry.
UniProt Q13263: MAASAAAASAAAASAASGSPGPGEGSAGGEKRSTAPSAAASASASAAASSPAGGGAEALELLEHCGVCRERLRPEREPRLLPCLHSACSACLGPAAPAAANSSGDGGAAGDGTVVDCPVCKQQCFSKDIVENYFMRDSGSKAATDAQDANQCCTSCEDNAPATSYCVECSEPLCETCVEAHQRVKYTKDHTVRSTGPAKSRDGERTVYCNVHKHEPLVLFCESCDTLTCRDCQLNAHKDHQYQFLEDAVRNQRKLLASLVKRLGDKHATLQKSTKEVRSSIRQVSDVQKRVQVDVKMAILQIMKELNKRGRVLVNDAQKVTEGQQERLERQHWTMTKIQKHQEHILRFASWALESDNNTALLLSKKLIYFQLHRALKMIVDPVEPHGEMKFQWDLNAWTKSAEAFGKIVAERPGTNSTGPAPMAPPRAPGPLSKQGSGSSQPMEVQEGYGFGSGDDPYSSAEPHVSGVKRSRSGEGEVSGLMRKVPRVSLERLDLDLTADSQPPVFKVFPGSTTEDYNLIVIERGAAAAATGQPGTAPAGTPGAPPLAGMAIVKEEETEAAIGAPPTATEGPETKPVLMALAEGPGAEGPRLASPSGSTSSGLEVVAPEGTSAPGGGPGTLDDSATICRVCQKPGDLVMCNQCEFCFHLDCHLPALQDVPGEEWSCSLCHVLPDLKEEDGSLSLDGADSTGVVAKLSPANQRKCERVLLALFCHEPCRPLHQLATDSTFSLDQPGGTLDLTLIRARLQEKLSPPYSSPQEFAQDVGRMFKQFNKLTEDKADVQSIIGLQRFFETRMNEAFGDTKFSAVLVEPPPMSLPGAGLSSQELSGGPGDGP
UniProt Q6NUN9, residues 1-108: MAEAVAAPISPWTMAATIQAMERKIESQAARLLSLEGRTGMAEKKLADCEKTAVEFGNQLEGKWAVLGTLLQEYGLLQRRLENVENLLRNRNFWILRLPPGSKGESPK
GST-ZNF746b/109–188 (A0A2R8YDQ5, form named): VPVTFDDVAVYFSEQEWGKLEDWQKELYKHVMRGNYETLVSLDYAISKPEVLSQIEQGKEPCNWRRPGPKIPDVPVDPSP
GST-ZNF746b/1–188 (A0A2R8YDQ5, form named): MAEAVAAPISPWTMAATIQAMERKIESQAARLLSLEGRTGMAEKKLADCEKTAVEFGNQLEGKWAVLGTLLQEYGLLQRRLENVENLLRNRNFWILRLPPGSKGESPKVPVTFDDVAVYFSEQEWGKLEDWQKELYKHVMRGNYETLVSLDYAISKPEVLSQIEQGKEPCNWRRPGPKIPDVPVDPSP
GST-ZNF746b/109–188 G142E (A0A2R8YDQ5, form named): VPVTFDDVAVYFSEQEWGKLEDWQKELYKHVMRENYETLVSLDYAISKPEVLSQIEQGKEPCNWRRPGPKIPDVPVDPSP
GST-ZNF746b/109–294 (A0A2R8YDQ5, form named): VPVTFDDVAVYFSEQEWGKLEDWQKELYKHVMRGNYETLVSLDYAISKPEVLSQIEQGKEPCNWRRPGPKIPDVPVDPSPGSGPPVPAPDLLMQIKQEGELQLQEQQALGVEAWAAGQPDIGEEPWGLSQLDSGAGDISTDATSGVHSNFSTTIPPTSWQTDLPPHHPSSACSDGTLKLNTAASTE
GST-ZNF746b/109–188 R141L (A0A2R8YDQ5, form named): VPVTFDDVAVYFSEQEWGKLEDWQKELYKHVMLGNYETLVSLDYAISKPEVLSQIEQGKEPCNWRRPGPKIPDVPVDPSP
GST-ZNF746b/109–188 RG141,142LE (A0A2R8YDQ5, form named): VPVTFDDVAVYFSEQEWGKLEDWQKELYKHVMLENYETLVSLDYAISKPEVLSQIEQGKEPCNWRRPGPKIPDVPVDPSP

Key:
[1] = target: TRIM28 (endogenous) (human (endogenous in HeLa)) (UniProt Q13263); test: co-IP; HeLa cells transiently expressing GST fusions; endogenous TRIM28 as bait, precipitated with mAb 1Tb1A9 on protein G Mag-Sepharose; TST buffer, overnight at 4 °C; Western blot with anti-TRIM28 and anti-GST
[2] = target: ZNF746a/1–108 (GST- or His-tagged, from E. coli) (human) (UniProt Q6NUN9); test: pull-down; crude E. coli extracts with recombinant His-tagged and GST- or MBP-fusion proteins mixed in vitro; Ni-NTA magnetic beads pull down the His-tagged protein; 50 mM TRIS/HCl pH 8, 300 mM NaCl, 20 mM imidazole, 0.05% Tween20, overnight at 4 °C
[3] = target: ZNF746a/1–108 (OST- or GST-tagged, in HeLa) (human) (UniProt Q6NUN9); test: pull-down; HeLa cells co-transfected with GST-fusion and OST-fusion constructs; Strep-Tactin pull-down via the OST-tagged protein; blots with anti-GST and anti-OST

binding [1] | Substance | other results
binds weakly | GST-ZNF746b/109–188 (from UniProt A0A2R8YDQ5 109-188) (domain or fragment) | –
binds | GST-ZNF746b/109–188 G142E (from UniProt A0A2R8YDQ5 109-188) (domain or fragment) | –
binds | GST-ZNF746b/109–294 (from UniProt A0A2R8YDQ5 109-294) (domain or fragment) | –

More lines, now with the values behind:

Substance | binding [1] | other results
GST-ZNF746b/1–188 (from UniProt A0A2R8YDQ5 1-188) (domain or fragment) | binds | –
ZNF746a/1–108 (GST- or His-tagged, from E. coli) (from UniProt Q6NUN9 1-108) (domain or fragment) | – | binding [2]: binds
GST-ZNF746b/109–188 R141L (from UniProt A0A2R8YDQ5 109-188) (domain or fragment) | binds weakly | –
GST-ZNF746b/109–188 RG141,142LE (from UniProt A0A2R8YDQ5 109-188) (domain or fragment) | binds | –
ZNF746a/1–108 (OST- or GST-tagged, in HeLa) (from UniProt Q6NUN9 1-108) (domain or fragment) | – | binding [3]: binds
